Measured values published in patent US20100247430A1 (published 2010).
No constants are given. Whether binding was seen depends on the method and setting. In cells and extracts the contact can be indirect. Some binding calls cover weakened binding; strength is not graded here.

The chains behind the UniProt entries cited, without tags or fusion partners.
UniProt Q80U72: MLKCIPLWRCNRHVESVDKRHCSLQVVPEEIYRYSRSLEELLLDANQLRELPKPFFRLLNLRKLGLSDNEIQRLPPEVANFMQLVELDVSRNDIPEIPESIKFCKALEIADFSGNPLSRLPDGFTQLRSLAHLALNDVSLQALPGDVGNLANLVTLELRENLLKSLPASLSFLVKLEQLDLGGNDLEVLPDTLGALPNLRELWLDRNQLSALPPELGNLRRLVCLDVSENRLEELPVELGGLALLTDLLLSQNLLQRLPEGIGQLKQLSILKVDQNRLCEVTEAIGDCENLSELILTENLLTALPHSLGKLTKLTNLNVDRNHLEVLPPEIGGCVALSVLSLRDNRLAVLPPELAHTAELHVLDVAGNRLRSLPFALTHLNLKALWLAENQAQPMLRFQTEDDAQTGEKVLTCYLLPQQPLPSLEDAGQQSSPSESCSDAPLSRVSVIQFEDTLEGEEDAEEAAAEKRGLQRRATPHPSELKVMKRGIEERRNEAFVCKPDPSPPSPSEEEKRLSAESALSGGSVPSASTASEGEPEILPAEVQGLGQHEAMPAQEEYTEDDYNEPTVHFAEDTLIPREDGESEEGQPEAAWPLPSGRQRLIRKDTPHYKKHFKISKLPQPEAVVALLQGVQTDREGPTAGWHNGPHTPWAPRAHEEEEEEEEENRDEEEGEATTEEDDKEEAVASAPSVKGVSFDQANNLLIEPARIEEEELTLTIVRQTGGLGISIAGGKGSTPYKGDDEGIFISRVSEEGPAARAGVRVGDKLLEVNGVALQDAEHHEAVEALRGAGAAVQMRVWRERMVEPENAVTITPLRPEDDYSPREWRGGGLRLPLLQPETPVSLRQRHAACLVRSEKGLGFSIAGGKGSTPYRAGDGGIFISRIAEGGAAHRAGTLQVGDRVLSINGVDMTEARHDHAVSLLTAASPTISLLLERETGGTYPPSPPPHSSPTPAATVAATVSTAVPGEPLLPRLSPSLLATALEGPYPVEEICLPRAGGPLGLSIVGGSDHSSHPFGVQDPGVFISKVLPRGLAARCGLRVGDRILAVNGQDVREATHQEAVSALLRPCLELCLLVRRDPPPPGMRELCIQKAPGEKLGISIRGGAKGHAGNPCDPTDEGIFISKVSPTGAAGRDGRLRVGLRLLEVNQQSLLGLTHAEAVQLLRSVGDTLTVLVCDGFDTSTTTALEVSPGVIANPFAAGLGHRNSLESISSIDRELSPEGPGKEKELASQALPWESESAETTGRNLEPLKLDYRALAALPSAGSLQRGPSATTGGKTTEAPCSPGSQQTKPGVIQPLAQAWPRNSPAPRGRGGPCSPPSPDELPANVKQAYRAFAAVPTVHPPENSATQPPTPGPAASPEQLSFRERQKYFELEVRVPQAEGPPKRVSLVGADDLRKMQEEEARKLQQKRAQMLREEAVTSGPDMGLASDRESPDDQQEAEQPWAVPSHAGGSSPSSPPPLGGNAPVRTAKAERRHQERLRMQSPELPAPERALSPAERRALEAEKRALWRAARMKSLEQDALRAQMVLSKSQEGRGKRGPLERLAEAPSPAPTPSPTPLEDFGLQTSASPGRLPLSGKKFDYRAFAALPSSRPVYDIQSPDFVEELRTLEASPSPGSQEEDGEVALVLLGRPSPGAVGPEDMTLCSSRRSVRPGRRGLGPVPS

Columns and labels:
[1] = biological target: Scrib (endogenous, mouse T cells) (mouse) (UniProt Q80U72); experiment: summary of the co-immunoprecipitation and GST-PDZ pull-down (discussion)
[2] = biological target: Scrib (endogenous, mouse T cells) (mouse) (UniProt Q80U72); experiment: co-immunoprecipitation from activated mouse CD4+ T cell extracts, anti-Scrib IP, anti-Crtam immunoblot
[3] = biological target: Scrib (endogenous, mouse T cells) (mouse) (UniProt Q80U72); experiment: co-immunoprecipitation from activated mouse CD8+ T cell extracts, anti-Scrib IP (H-300), immunoblot with 17B2

Measured: binding

B1: mouse Crtam (endogenous, on activated mouse T cells) (receptor)
chain: AFLKMETVTVEEGQTLTLTCVTSQTKNVSLQWLAPSGFTIFLNQHPALKSSKYQLLHHSATQLSISVSNVTLREEGVYTCLHYGSSVKTKQVRVTVLVTPFQPTVEALVLRRQNGEKSVVLKCSTERSKPPPQITWLLGEGLEIYGELHHEFEADGKICNTSSTLIARAYGKNSTVHCIIQHEGLHGRKLVAPFQFEDLVADQETTSDAPEQSSLSSQALQQPTSTVSMMENSSIPETDKEEKEHATQDPGLSTASAQHTGLARRKSGILLLTLVSFLIFILFIIVQLFIMKLRKAHVVWKKESEISEQALESYRSRSNNEETSSQENSSQAPQSKRCMNYITQLYSGAKTKKSAQHWKLGGKHSRVPESIV
notes: Endogenous protein of mouse CD4+ or CD8+ T cells; In the co-immunoprecipitations it came from whole cell extracts; In flow cytometry and the Cadm1(ECD)-Fc assay it was on the cell surface; also called class-I MHC restricted T-cell associated molecule
binds: [1] | [2] | [3]
